Consider one substance from article doi:10.1101/2024.04.29.591626.

By UniProt entry, the sequences of proteins in these tests, tags left out.
UniProt P46013: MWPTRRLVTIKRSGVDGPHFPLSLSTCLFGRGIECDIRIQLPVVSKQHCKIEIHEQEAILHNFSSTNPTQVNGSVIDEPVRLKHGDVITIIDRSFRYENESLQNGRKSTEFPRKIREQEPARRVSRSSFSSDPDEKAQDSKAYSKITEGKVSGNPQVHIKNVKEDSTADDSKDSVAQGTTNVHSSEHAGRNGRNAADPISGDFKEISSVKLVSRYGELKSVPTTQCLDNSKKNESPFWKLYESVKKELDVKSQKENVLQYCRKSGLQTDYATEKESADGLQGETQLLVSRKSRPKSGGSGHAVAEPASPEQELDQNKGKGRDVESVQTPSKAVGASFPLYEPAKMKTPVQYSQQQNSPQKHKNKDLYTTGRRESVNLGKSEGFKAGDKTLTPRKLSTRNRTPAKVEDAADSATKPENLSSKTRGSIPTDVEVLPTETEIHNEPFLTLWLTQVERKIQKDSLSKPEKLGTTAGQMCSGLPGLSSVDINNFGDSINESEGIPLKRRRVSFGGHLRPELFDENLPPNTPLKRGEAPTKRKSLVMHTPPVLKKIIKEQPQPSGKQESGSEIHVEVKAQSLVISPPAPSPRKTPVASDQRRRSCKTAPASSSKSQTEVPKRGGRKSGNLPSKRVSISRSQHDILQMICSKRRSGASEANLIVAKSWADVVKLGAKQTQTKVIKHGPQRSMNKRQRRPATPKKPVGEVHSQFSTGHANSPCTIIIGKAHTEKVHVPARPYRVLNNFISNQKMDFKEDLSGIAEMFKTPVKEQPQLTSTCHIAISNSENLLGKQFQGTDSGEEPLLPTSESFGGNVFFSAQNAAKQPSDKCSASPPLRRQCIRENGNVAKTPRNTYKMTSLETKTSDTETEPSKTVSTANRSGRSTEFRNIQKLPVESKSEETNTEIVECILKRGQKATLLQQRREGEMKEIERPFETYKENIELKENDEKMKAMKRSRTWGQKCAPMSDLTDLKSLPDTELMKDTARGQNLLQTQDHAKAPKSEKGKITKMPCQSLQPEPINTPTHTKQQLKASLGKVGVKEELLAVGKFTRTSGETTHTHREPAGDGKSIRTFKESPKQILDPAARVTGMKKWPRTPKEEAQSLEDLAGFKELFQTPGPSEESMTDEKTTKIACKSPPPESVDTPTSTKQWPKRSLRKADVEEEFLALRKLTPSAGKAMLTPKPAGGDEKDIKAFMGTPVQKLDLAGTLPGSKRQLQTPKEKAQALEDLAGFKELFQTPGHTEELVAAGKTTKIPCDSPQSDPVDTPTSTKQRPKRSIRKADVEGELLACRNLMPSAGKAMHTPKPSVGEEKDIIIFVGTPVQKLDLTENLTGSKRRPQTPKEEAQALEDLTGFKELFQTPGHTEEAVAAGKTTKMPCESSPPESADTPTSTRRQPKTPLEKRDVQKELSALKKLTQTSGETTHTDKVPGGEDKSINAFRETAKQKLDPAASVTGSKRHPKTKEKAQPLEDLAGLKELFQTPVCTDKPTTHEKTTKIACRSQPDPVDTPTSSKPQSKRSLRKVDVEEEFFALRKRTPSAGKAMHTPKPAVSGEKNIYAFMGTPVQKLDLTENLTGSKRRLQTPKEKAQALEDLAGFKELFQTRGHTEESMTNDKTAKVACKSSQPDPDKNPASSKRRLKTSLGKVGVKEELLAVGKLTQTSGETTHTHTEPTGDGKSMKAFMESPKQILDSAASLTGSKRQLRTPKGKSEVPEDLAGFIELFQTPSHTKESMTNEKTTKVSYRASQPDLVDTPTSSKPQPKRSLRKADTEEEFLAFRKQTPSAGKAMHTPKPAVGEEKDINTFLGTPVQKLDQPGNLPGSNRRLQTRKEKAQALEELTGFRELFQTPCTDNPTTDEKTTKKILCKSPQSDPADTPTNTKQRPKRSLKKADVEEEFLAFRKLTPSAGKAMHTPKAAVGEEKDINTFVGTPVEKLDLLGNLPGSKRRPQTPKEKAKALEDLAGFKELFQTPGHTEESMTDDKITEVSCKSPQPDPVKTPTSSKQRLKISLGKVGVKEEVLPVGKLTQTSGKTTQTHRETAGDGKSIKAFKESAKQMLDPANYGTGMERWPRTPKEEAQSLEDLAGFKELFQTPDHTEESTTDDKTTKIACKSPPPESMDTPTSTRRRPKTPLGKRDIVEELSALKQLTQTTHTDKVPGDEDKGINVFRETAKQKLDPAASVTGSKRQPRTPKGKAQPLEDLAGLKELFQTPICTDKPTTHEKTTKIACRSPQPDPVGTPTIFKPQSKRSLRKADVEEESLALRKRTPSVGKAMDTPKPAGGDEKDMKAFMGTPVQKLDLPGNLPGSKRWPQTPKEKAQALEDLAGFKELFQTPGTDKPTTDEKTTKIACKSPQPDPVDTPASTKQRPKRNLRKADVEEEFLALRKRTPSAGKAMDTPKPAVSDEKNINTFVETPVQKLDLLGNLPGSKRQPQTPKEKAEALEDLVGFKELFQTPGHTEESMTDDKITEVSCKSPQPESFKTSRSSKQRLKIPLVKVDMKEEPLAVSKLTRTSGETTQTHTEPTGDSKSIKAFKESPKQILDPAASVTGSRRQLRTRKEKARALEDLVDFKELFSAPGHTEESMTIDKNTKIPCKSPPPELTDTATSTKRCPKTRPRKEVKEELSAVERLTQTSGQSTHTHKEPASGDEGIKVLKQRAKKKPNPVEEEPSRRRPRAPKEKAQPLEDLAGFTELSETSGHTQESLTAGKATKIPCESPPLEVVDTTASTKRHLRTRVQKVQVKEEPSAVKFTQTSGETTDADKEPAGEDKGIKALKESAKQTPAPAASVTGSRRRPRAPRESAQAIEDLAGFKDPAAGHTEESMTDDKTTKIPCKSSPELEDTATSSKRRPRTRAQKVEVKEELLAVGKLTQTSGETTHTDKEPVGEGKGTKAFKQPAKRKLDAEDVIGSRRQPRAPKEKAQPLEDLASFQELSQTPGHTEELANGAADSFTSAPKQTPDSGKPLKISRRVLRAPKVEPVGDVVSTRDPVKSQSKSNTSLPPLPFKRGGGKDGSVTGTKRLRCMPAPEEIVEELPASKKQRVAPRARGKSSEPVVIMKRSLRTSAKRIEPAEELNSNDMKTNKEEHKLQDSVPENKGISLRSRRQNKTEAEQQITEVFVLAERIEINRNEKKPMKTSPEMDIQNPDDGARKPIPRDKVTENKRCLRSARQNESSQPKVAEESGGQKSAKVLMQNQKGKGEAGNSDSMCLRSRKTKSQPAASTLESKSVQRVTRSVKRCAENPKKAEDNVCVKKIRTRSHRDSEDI

The assay concerns the target T1, CENP-B (human (endogenous in HCT116)) (UniProt P07199).
T1 sequence: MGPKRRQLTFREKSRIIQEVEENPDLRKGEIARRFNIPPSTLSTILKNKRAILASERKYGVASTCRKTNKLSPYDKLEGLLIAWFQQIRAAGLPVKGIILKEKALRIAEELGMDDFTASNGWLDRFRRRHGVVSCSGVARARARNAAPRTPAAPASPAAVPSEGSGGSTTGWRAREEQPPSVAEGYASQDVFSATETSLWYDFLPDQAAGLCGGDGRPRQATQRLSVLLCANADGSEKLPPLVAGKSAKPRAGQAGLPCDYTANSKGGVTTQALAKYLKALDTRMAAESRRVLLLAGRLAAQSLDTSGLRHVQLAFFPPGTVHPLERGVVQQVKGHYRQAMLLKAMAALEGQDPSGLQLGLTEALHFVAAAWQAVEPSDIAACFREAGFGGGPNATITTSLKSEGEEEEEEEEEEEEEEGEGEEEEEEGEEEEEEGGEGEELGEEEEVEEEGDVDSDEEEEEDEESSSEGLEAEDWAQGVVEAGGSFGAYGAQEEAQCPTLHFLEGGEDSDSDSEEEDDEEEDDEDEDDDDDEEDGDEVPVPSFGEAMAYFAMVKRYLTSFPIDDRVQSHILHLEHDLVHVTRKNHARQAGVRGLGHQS
Put plainly: proximity ligation.

These are yes or no findings as the source states them, for the method shown. Binding seen in cells or lysates may run through a third protein. Some results given as binding are weak or reduced against the parent protein; the word gives no strength.

Regarding “Ki-67-mAID-mClover (from UniProt P46013 1-3256)”, the binding result is “binds”.
